Source: the supplement of paper PMC3682954
Counter-ions that a name gives are not always drawn. ± gives the standard deviation of the averaged measurements. Some of the results follow. Many values rest on one well or one pass, so single values are uncertain.

Tested on: RAW 264.7
Assay: HMGB1-induced TNF-alpha production relative to HMGB1-stimulated control; higher = more TNF-alpha secretion (less inhibition)
Settings: stimulus: HMGB1 5 ug/ml, 18 h
[1] = compound concentration: 1 ug/ml

Compound	HMGB1-induced TNF-alpha production [1] [%]	HMGB1-induced TNF-alpha production (compound concentration: 3 uM) [%]
CCOC(=O)CCC(=O)O[C@H]1[C@H](O[C@@H]2[C@@H](C)[C@H](O[C@H]3C[C@@](C)(OC)[C@@H](O)[C@H](C)O3)[C@@H](C)C(=O)O[C@H](CC)[C@@](C)(O)[C@H](O)[C@@H](C)C(=O)[C@H](C)C[C@@]2(C)O)O[C@H](C)C[C@@H]1N(C)C [erythromycin ethylsuccinate]	83.3	–
CCOC(=O)CCC(=O)O[C@H]1[C@H](O[C@@H]2[C@@H](C)[C@H](O[C@H]3C[C@@](C)(OC)[C@@H](O)[C@H](C)O3)[C@@H](C)C(=O)O[C@H](CC)[C@@](C)(O)[C@H](O)[C@@H](C)C(=O)[C@H](C)C[C@@]2(C)O)O[C@H](C)C[C@@H]1N(C)C	–	80.5
Nc1ncnc2nc(-c3ccc(N4CCOCC4)nc3)cc(-c3cccc(Br)c3)c12 [ABT-702 dihydrochloride]	–	118
C[C@]12C=CC(=O)C=C1CC[C@@H]1[C@@H]2C(=O)C[C@@]2(C)[C@H]1CC[C@]2(O)C(=O)CO [Prednisone]	–	85 ± 8.9
C[C@]12C=CC(=O)C=C1CC[C@@H]1[C@@H]2C(=O)C[C@@]2(C)[C@H]1CC[C@]2(O)C(=O)CO	–	74.9
C[C@]12C=CC(=O)C=C1CC[C@@H]1C2=CC[C@]2(C)[C@@H](C(=O)CN3CCN(c4cc(N5CCCC5)nc(N5CCCC5)n4)CC3)CC[C@@H]12	–	78
O=c1ccc2c(OCCCCc3ccccc3)c3ccoc3cc2o1 [Psora-4]	–	103
NC(=O)c1cc[n+](CC2=C(C(=O)O)N3C(=O)[C@@H](NC(=O)C(c4ccccc4)S(=O)(=O)[O-])[C@H]3SC2)cc1 (stereo partly drawn) [Cefsulodin sodium salt hydrate]	–	81.7
CCn1cc(C(=O)O)c(=O)c2cc(F)c(N3CCNC(C)C3)c(F)c21 (stereo not drawn) [Lomefloxacin]	–	101
CCn1cc(C(=O)O)c(=O)c2cc(F)c(N3CCNC(C)C3)c(F)c21 (stereo not drawn) [Lomefloxacin hydrochloride]	–	97.9 ± 15
CCn1cc(C(=O)O)c(=O)c2cc(F)c(N3CCNC(C)C3)c(F)c21 (stereo not drawn)	–	86.7
COc1cc(C)nc(-n2nc(C)cc2OC)n1	–	104
COc1cc(C)nc(-n2nc(C)cc2OC)n1 [Epirizole]	–	72.5
CS(=O)(=O)Nc1ccc([N+](=O)[O-])cc1Oc1ccccc1 [Nimesulide]	–	102 ± 23
CS(=O)(=O)Nc1ccc([N+](=O)[O-])cc1Oc1ccccc1	–	81
O=C(O)C1=CCNCC1 [Isoguvacine hydrochloride]	–	82.5
CNC(=C[N+](=O)[O-])NCCSCc1csc(CN(C)C)n1 [Nizatidine]	–	112
CNC(=C[N+](=O)[O-])NCCSCc1csc(CN(C)C)n1	–	96.4 ± 13
CC(C)CN(C[C@@H](O)[C@H](Cc1ccccc1)NC(=O)O[C@H]1CCOC1)S(=O)(=O)c1ccc(N)cc1 [Amprenavir]	–	109
CCC1=C[C@@H]2CN(C1)Cc1c([nH]c3ccccc13)[C@@](C(=O)OC)(c1cc3c(cc1OC)N(C)[C@H]1[C@@](O)(C(=O)OC)[C@H](OC(C)=O)[C@]4(CC)C=CCN5CC[C@]31[C@@H]54)C2 [Vinorelbine]	–	95.4
CCN(CC)CCn1c(=O)c(Cc2ccc(OC)cc2)nc2ccccc21 [Caroverine hydrochloride]	–	97.7
Cc1cccc(CCN2CCC(C(=O)c3ccc(NS(C)(=O)=O)cc3)CC2)n1	–	95.2

Part of the list above, as comma-separated lines:
Compound,HMGB1-induced TNF-alpha production [1] [%],HMGB1-induced TNF-alpha production (compound concentration: 3 uM) [%]
CNC(=C[N+](=O)[O-])NCCSCc1csc(CN(C)C)n1,–,96.4 ± 13
CC(C)CN(C[C@@H](O)[C@H](Cc1ccccc1)NC(=O)O[C@H]1CCOC1)S(=O)(=O)c1ccc(N)cc1 [Amprenavir],–,109

(next part)

Compound	HMGB1-induced TNF-alpha production [1] [%]	HMGB1-induced TNF-alpha production (compound concentration: 3 uM) [%]
CO[C@H]1C[C@@H]2CC[C@@H](C)[C@@](O)(O2)C(=O)C(=O)N2CCCC[C@H]2C(=O)O[C@H]([C@H](C)C[C@@H]2CC[C@@H](O)[C@H](OC)C2)CC(=O)[C@H](C)/C=C(\C)[C@@H](O)[C@@H](OC)C(=O)[C@H](C)C[C@H](C)/C=C/C=C/C=C/1C	–	103 ± 12
CO[C@H]1C[C@@H]2CC[C@@H](C)[C@@](O)(O2)C(=O)C(=O)N2CCCC[C@H]2C(=O)O[C@H]([C@H](C)C[C@@H]2CC[C@@H](O)[C@H](OC)C2)CC(=O)[C@H](C)/C=C(\C)[C@@H](O)[C@@H](OC)C(=O)[C@H](C)C[C@H](C)/C=C/C=C/C=C/1C [Rapamycin]	–	84.3
CS(=O)(=O)c1ccc([C@H](O)[C@@H](COC(=O)CN)NC(=O)C(Cl)Cl)cc1 [Thiamphenicol glycinate]	–	88.2
NS(=O)(=O)c1ccc(C(=O)O)cc1	–	93.6
CNc1cc(NS(=O)(=O)c2ccc(N)cc2)nc(NC)n1 [Ro 04-6790 dihydrochloride]	–	111
CCN(CC)CCCC(C)Nc1c2ccc(Cl)cc2nc2ccc(OC)cc12 (stereo not drawn) [Quinacrine dihydrochloride dihydrate]	–	61.9
CCN(CC)CCCC(C)Nc1c2ccc(Cl)cc2nc2ccc(OC)cc12 (stereo not drawn) [Quinacrine dihydrochloride]	–	88.8
CCN(CC)CCCC(C)Nc1c2ccc(Cl)cc2nc2ccc(OC)cc12 (stereo not drawn) [Quinacrine]	–	77.1
CCN(CC)CCCC(C)Nc1c2ccc(Cl)cc2nc2ccc(OC)cc12 (stereo not drawn)	–	54.7 ± 19
Cc1nc(C)c(Cl)c(O)c1Cl	–	112
Cc1nc(C)c(Cl)c(O)c1Cl [Clopidol]	–	105
CCCCCCCCCCCCCCCC[N+](C)(C)CCN(Cc1ccc(OC)cc1)c1ncccn1 [Thonzonium bromide]	–	67.7
Nc1ncnc2c1ncn2[C@@H]1O[C@H](CO)[C@@H](OP(=O)(O)O)[C@H]1O [3'-Adenylic acid]	81	–
O=C(O)P(=O)(O)O	–	99.4
C#C[C@]1(O)CC[C@H]2[C@@H]3CCc4cc(OC)ccc4[C@H]3CC[C@@]21C	–	101 ± 20
C#C[C@]1(O)CC[C@H]2[C@@H]3CCc4cc(OC)ccc4[C@H]3CC[C@@]21C [Ethynylestradiol 3-methyl ether]	–	111
CC(C)NCC(O)c1ccc(NS(C)(=O)=O)cc1 (stereo not drawn) [Sotalol hydrochloride]	–	98.2
CC(C)NCC(O)c1ccc(NS(C)(=O)=O)cc1 (stereo not drawn) [Sotalol]	–	95.7
CC1=C(C)C(=O)C(CCCCC#CCCCC#CCO)=C(C)C1=O	–	90.4
CC1=C(C)C(=O)C(CCCCC#CCCCC#CCO)=C(C)C1=O [Docebenone]	–	102
COc1cc(C=O)ccc1O [Vanillin]	81.1	–
